Data on 3 substances can be found in publication PMC9541320 (Chemmedchem, 2022).

Strings that start with PEPTIDE1 are HELM notation: dots part the residues, brackets hold end groups and non-standard residues.

This data set can be described thus: general procedure: Fmoc solid-phase peptide synthesis; Rink Amide AM LL resin (0.29 mmol/g); DIC/Oxyma. As to conditions: whole synthesis, scale 300 mg resin.
Turning to “PEPTIDE1{[dF].[dA].[dK].[dK].[dF].[dF].[dK].[dK].[dF].[dA].[dK].[dF].[dA].[dF].[dK].[am]}$$$$V2.0”, the isolated mass came to 25.5 mg and the isolated yield is on record as 23.0%.
The matching figures for “PEPTIDE1{V.N.W.K.K.I.L.G.K.I.I.K.V.V.K.[am]}$$$$V2.0”: 41 mg and 20.2%.
The corresponding values for “PEPTIDE1{[dV].[dN].[dW].[dK].[dK].[dI].[dL].G.[dK].[dI].[dI].[dK].[dV].[dV].[dK].[am]}$$$$V2.0” are 26 mg and 17.0%.
